Measured values taken from PubChem BioAssay AID1259354 (Paczesny and Yang Labs, IUPUI and University of Michigan, 2018).
Among all 78,000 compounds or so, about 1,800 (2.3%) were called active. This list was built around the results that the source calls inconclusive (neither active nor inactive); the mix of calls is not that of the screen. No stated cut-off is given here; in the data, active means inhibition above about 30%; inconclusive means mostly about 10% to 28%; inactive means weaker than that.

By UniProt entry, the sequences of proteins in these tests, tags left out. Where a name states a change or a piece, a line headed by the entry shows the natural chain unless it says otherwise.
UniProt Q01638: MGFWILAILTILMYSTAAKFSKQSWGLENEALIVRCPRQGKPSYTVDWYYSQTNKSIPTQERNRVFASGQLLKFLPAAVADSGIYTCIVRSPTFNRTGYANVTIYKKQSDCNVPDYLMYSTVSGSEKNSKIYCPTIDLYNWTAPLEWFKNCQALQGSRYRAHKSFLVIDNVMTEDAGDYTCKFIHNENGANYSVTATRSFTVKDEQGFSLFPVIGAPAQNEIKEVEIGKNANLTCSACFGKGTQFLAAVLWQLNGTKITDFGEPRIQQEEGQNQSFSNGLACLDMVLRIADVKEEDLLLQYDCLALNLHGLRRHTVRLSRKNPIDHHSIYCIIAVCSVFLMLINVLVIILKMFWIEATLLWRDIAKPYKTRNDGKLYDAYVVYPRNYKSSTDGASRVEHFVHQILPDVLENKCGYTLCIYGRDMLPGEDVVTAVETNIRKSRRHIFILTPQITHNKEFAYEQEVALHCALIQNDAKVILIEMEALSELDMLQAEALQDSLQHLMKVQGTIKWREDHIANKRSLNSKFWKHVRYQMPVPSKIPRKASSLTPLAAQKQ

Molecular target: Interleukin-1 receptor-like 1 (Homo sapiens) (UniProt Q01638)
Assay: blocks human ST2 binding to IL-33, primary screen, biochemical, AlphaLISA (AID 1259354)
Details: AlphaLISA ST2-Fc/biotin-IL-33 interaction, 1 h; at 17 µM, active compounds read high

| SMILES | inhibition |
| --- | --- |
| COc1ccc(-n2c(/C=C/c3cccc(OC)c3O)nc3ccccc3c2=O)cc1OC | inconclusive: 11% |
| COc1cccc(NC(=O)O[C@@H]2CC[C@]3(C)[C@H](CC[C@H]4OC(=O)C[C@H]43)[C@]2(C)CO)c1 | inconclusive: 12% |
| COc1nc2ccccc2cc1CN1C[C@H]2OC(=O)N(C3CCCC3)[C@H]2C1 | inconclusive: 17% |
| COc1ccc(C2C(C#N)=C(N)OC3=C2C(=O)CC(c2ccccc2)C3)cc1C (centres undefined) | inconclusive: 12% |
| CC(=O)NCCC1=CCCN(CC(=O)Nc2ccc(C)cn2)C1 | inactive |
| CC(=O)N1c2ccccc2NC2=C(C(=O)CC(C)(C)C2)C1CC1CC=C(C)C1(C)C (centres undefined) | inconclusive: 10% |
| Cc1nnc(Sc2cc(C(=O)NC3CC3)c3ccccc3n2)s1 | inconclusive: 19% |
| O=C(NC1CCN(Cc2ccccc2)C1)c1cn(Cc2ccccc2Cl)nn1 (centres undefined) | inactive |
| COc1ccc(-c2cc(C(F)(F)F)nc(S[C@H]3C[C@H](O)[C@@H]4OC[C@H]3O4)n2)cc1OC | inactive |
| CC(C)c1ccc(/C=C/C(=O)Nc2nc3ccc(S(C)(=O)=O)cc3s2)cc1 | inconclusive: 13% |
| Cc1ccc(CN2CCCN(CC(=O)NCCCc3ccccc3)S2(=O)=O)cc1 | inconclusive: 14% |
| COc1ccc(C2=N/C(=C/c3cc4ccccc4n3C(C)=O)C(=O)O2)cc1OC | inconclusive: 25% |
| CCCC1OCC2(COC(=O)c3ccccc3)C(C)C=C(C)C1C2C (centres undefined) | inconclusive: 13% |
| CC(=O)NC(C)c1nc2ccccc2n1Cc1c(F)cccc1Cl (centres undefined) | inactive |
| Cc1cccc(C)c1NC(=O)Cn1c(=O)n(-c2ccc(F)cc2F)c(=O)c2sccc21 | inconclusive: 27% |
| Cn1nc(C2CCN(C(=O)C3CNC(=O)C3)CC2)n(-c2ccccc2)c1=O (centres undefined) | inconclusive: 22% |
| CN(C)c1ccc(/C=C/c2[nH]c(=O)[nH]c(=O)c2[N+](=O)[O-])cc1 | inactive |
| CCN(CC)c1ccc2cc(C(=O)NC(C)=O)c(=Nc3ccccc3OC)oc2c1 | inconclusive: 13% |
| Cc1ncsc1CCC(=O)NCc1cnn2ccccc12 | inconclusive: 17% |
| Cc1cc(C)nc(SC2=CS(=O)(=O)c3ccccc32)n1 | inconclusive: 21% |
| COCc1nc(N2CC(Oc3c(C)cccc3C)C2)c2cnn(C)c2n1 | inconclusive: 17% |
| COc1ccc(/C(N)=N\OC(=O)COc2ccccc2OC)cc1 | inconclusive: 15% |
| CC1=C[C@@H](CNCc2ccncc2)[C@H](C(C)C)C[C@H]1Cc1nnc(C)o1 | inconclusive: 12% |
| COC(=O)c1ccc(C(=O)Nc2nc3c(C)cc(C)cc3s2)cc1 | inactive |

Arranged by molecular weight (rising): 3 of the compounds above

| SMILES | inhibition |
| --- | --- |
| COc1nc2ccccc2cc1CN1C[C@H]2OC(=O)N(C3CCCC3)[C@H]2C1 | inconclusive: 17% |
| CCN(CC)c1ccc2cc(C(=O)NC(C)=O)c(=Nc3ccccc3OC)oc2c1 | inconclusive: 13% |
| COc1ccc(-n2c(/C=C/c3cccc(OC)c3O)nc3ccccc3c2=O)cc1OC | inconclusive: 11% |
